Assay: general procedure: Fmoc solid-phase peptide synthesis; Fmoc-phenylalanine-2-chlorotrityl resin (0.6 mmol/gram); HATU / N-methyl morpholine
Settings: conjugation step

| Substance | conjugation yield [%] |
| --- | --- |
| (S)-2-((2R,3R)-3-((S)-1-((3R,4S,5S)-4-((S)-2-((S)-2-(6-(3-(4-cyanophenoxy)-2,5-dioxo-2,5-dihydro-1H-pyrrol-1-yl)-N-methylhexanamido)-3-methylbutanamido)-N,3-dimethylbutanamido)-3-methoxy-5-methylheptanoyl)pyrrolidin-2-yl)-3-methoxy-2-methylpropanamido)-3-phenylpropanoic acid | 63 |
| CPM(C6)-Val-Ala-PAB-MMAE | 15 |

Source: patent US20190209704A1 (IGENICA BIOTHERAPEUTICS, INC., priority 2014, published 2019)
